Reference: publication PMC8020760, “Assembly of a dsRNA synthesizing complex: RNA-DEPENDENT RNA POLYMERASE 2 contacts the largest subunit of NUCLEAR RNA POLYMERASE IV” (Proceedings of the National Academy of Sciences of the …, 2021)
These are yes or no findings as the source states them, for the method shown. For part of these data: Binding seen in cells or lysates may run through a third protein. Some entries that bind do so weakly or less than the wild type. Tags and fused reporters may be left off the sequences shown. Each block holds one binder with its values, some of them ahead of it.

Legend:
[1] = target: T1, NRPD1 fused to the Gal4 DNA binding domain or the Gal4 activation domain (A. thaliana) (UniProt Q9LQ02); test: two-hybrid; yeast two-hybrid, S. cerevisiae MaV203, Gal4 DBD (pDEST32) bait and Gal4 AD (pDEST22) prey, growth on medium lacking Trp, Leu, His with 25 mM 3AT, 3 d at 30 °C
T1 sequence: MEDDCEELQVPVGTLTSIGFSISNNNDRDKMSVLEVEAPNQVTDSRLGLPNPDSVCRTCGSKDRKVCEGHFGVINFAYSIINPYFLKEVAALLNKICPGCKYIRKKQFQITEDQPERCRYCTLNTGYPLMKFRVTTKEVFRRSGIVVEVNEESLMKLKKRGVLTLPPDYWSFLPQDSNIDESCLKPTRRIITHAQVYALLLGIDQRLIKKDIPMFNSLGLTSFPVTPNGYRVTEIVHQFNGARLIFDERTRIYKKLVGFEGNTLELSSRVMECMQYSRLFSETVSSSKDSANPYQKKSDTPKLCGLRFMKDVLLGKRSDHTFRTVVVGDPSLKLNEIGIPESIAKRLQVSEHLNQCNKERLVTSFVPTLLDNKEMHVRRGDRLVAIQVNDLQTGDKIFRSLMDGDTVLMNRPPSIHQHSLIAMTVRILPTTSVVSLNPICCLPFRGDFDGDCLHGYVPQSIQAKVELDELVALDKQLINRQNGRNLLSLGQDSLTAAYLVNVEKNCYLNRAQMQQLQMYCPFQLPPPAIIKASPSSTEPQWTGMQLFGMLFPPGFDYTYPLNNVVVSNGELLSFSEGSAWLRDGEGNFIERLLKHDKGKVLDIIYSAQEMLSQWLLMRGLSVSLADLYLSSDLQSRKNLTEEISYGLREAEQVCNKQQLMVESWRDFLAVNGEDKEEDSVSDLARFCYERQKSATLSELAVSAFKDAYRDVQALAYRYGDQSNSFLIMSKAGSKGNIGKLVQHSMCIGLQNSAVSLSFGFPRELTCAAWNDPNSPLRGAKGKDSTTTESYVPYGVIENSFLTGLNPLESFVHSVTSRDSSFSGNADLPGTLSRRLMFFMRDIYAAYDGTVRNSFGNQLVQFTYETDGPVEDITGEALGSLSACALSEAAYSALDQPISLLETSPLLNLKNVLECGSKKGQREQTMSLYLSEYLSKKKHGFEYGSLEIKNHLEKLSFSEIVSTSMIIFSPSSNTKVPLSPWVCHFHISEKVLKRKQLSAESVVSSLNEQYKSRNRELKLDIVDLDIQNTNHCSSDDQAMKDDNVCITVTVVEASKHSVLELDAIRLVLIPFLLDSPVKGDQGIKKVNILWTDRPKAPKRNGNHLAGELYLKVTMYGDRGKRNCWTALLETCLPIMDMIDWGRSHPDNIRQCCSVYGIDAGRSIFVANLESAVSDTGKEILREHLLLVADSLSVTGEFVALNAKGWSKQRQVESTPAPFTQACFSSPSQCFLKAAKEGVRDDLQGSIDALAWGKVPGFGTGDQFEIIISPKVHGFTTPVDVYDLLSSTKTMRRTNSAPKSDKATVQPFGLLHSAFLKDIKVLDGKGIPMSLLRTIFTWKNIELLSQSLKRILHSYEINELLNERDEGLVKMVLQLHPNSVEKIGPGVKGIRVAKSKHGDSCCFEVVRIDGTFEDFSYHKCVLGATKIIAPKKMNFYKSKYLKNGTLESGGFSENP

[2] = target: T2, recombinant NRPD1_(1–300) with His and FLAG tags, made in E. coli (A. thaliana) (UniProt Q9LQ02); test: co-IP; HA-tagged RDR2 polypeptides made in a bacterial transcription-translation system incubated with FLAG-tagged NRPD1_(1–300); anti-FLAG IP; anti-HA and anti-FLAG immunoblots; only the target purified
T2 sequence: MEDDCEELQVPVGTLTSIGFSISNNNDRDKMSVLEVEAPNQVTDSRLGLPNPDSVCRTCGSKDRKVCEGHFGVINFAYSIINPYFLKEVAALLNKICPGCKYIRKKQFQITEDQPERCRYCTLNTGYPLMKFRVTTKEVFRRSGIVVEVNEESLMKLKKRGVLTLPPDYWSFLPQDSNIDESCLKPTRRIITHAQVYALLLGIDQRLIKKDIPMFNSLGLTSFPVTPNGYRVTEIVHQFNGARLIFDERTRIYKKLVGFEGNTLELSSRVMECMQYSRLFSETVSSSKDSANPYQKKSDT

[3] = target: T3, recombinant RNA-… RNA POLYMERASE 2 (RDR2), wild type, with N-terminal V5 epitope and 6xHis tags (A. thaliana) (UniProt O82504); test: co-IP; FLAG-tagged NRPD1 polypeptides made in a bacterial transcription-translation system incubated with V5-tagged recombinant RDR2; anti-V5 IP; anti-FLAG and anti-V5 immunoblots; only the target purified
T3 sequence: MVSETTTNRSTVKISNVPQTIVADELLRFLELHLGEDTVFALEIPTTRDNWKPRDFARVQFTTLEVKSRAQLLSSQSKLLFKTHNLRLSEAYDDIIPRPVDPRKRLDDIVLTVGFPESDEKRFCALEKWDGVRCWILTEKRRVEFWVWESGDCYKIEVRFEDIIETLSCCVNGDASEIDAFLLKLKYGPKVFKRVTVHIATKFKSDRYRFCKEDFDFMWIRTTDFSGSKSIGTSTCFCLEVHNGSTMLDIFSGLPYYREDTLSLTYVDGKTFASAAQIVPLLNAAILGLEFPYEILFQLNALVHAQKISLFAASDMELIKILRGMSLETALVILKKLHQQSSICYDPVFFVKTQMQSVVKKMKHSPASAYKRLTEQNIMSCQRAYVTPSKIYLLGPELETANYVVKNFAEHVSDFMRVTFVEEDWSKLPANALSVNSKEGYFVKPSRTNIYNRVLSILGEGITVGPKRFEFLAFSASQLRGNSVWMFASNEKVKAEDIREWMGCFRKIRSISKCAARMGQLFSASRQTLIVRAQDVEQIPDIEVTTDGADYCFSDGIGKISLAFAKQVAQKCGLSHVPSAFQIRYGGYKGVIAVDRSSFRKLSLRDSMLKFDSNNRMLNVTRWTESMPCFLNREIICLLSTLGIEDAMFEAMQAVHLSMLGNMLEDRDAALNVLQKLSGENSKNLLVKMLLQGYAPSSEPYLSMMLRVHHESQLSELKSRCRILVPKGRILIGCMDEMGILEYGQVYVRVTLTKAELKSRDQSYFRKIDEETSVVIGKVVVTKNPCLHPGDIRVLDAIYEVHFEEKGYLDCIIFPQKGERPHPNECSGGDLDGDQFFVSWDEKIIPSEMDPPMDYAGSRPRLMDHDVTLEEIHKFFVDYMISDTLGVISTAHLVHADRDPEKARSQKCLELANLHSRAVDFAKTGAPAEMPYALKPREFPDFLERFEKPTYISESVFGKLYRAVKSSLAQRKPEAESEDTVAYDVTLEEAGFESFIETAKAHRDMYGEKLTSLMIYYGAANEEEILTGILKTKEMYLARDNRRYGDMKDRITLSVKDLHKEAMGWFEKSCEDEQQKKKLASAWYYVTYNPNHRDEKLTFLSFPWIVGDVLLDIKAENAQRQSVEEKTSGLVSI

- binding [1]: binds
B1: RDR2 fused to the Gal4 DNA binding domain or the Gal4 activation domain (protein, UniProt O82504 1-1133)
chain: T3 sequence

- binding [3]: no binding
B4: NRPD1 polypeptide, amino acids 255–555, C-terminal FLAG tag, made in vitro (domain or fragment, UniProt Q9LQ02 255-555)
chain: KLVGFEGNTLELSSRVMECMQYSRLFSETVSSSKDSANPYQKKSDTPKLCGLRFMKDVLLGKRSDHTFRTVVVGDPSLKLNEIGIPESIAKRLQVSEHLNQCNKERLVTSFVPTLLDNKEMHVRRGDRLVAIQVNDLQTGDKIFRSLMDGDTVLMNRPPSIHQHSLIAMTVRILPTTSVVSLNPICCLPFRGDFDGDCLHGYVPQSIQAKVELDELVALDKQLINRQNGRNLLSLGQDSLTAAYLVNVEKNCYLNRAQMQQLQMYCPFQLPPPAIIKASPSSTEPQWTGMQLFGMLFPPGF

- binding [2]: binds
B5: recombinant RDR2_(771–970) with His and HA tags, made in E. coli (domain or fragment, A. thaliana, UniProt O82504 771-970, looked up)
chain: ETSVVIGKVVVTKNPCLHPGDIRVLDAIYEVHFEEKGYLDCIIFPQKGERPHPNECSGGDLDGDQFFVSWDEKIIPSEMDPPMDYAGSRPRLMDHDVTLEEIHKFFVDYMISDTLGVISTAHLVHADRDPEKARSQKCLELANLHSRAVDFAKTGAPAEMPYALKPREFPDFLERFEKPTYISESVFGKLYRAVKSSLAQ
notes: The methods give the C-terminal limit as 971, the results and legends as 970; More in SI Appendix, Methods; source: E. coli (pET28 vector), purified (nickel-NTA by the methods; anti-HA resin by the results)

Second part, the binder before the results:

B2: RDR2 polypeptide, amino acids 617–816, C-terminal HA tag, made in vitro (domain or fragment, UniProt O82504 617-816)
chain: MLNVTRWTESMPCFLNREIICLLSTLGIEDAMFEAMQAVHLSMLGNMLEDRDAALNVLQKLSGENSKNLLVKMLLQGYAPSSEPYLSMMLRVHHESQLSELKSRCRILVPKGRILIGCMDEMGILEYGQVYVRVTLTKAELKSRDQSYFRKIDEETSVVIGKVVVTKNPCLHPGDIRVLDAIYEVHFEEKGYLDCIIFPQ
- binding [2]: no binding

B3: RDR2 polypeptide, amino acids 925–1133, C-terminal HA tag, made in vitro (domain or fragment, UniProt O82504 925-1133)
chain: GAPAEMPYALKPREFPDFLERFEKPTYISESVFGKLYRAVKSSLAQRKPEAESEDTVAYDVTLEEAGFESFIETAKAHRDMYGEKLTSLMIYYGAANEEEILTGILKTKEMYLARDNRRYGDMKDRITLSVKDLHKEAMGWFEKSCEDEQQKKKLASAWYYVTYNPNHRDEKLTFLSFPWIVGDVLLDIKAENAQRQSVEEKTSGLVSI
- binding [2]: no binding

B6: NRPD1 polypeptide, amino acids 1–300, C-terminal FLAG tag, made in vitro (domain or fragment, UniProt Q9LQ02 1-300)
chain: T2 sequence
- binding [3]: binds
